No constants are given. Whether binding was seen depends on the method and setting. Binding seen in cells or lysates may run through a third protein. A yes stands for co-enrichment or nearness to the bait. Other partners may have been found. Where a sequence is shown, tags or fusion partners need not be part of it.

By UniProt entry, the sequences of proteins in these tests, tags left out.
UniProt Q9UMX0: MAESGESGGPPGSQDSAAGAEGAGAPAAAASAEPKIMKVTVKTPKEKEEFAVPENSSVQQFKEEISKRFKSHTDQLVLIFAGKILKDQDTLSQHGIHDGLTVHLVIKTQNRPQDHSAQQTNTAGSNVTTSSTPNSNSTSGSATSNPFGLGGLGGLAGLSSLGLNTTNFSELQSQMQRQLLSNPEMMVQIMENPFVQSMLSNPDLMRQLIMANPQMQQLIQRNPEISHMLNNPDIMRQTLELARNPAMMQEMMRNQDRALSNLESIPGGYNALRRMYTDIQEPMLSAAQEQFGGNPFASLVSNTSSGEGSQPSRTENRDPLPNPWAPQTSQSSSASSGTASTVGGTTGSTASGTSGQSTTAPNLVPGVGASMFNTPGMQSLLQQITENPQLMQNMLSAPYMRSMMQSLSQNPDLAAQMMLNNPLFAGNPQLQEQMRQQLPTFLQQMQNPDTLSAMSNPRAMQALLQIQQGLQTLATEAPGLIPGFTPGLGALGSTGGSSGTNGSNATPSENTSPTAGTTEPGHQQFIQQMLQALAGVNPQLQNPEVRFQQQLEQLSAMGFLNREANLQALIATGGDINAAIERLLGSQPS

The source of these data is article PMC11671618.

The target in the experiment is T1, Beclin 2-Flag (UniProt A8MW95).
T1 sequence: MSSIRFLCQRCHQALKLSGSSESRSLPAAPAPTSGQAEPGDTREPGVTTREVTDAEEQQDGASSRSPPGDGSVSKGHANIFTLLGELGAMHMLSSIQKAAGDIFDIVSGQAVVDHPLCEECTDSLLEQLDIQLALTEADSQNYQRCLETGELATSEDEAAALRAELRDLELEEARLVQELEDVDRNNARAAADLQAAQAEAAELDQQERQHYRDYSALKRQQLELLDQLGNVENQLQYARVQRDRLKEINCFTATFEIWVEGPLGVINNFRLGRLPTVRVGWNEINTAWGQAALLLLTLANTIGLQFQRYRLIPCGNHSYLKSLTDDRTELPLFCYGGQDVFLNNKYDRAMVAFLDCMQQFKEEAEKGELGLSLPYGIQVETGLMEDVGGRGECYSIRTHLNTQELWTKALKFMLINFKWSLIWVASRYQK
Briefly: affinity purification with mass spectrometry; lysate of MDA-MB-231 cells transfected with Beclin 2-Flag; IP with mouse Flag antibody against mouse IgG control, 12 h at 4°C, protein A/G magnetic beads, washes with PBST; MaxQuant search against UniProt human data.

Consider Ubiquilin 1 (from UniProt Q9UMX0 1-589), for which the binding entry is listed as “binds”.
